{"source": "PubChem BioAssay AID652243 (Drosophila RNAi Screening Center, 2013)", "test": "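Knock-downs that decrease or increase androgen receptor reporter signal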 (primary screen)", "cells": "Drosophila S2R+ cells", "reagent": "long dsRNA against Drosophila genes", "duration": "72 h (48 h, then 24 h hormone)", "conditions": "synthetic androgen R1881 at 10 nM for 24 h", "detection": "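Firefly light from an androgen-responsive reporter and Renilla control light per well, raw and unnormalised, for each of two replicates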", "reading the numbers": "firefly reporter light: higher = more light from androgen-responsive reporter; Renilla control light: higher = more constitutive control signal (cell number, transfection)", "active means": "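Hit when the log firefly-to-Renilla ratio dropped or increased by a fixed fold versus the mean of GFP or LacZ controls across duplicate plates; lowering cut given as 1.5 and as 3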", "meaning of the calls": "active = hit: reporter lowered or raised; inactive = no hit", "note": "The screen tested about 24,000 reagents; this is an unselected part of those that have a named target and a result. In the full data, 246 (1%) are marked active. 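Plates not normalised; calls are printed but the firefly/Renilla ratio behind them is not deposited; fold cut for lowering reported inconsistently.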 Raw values are not corrected between plates. Reagents against one gene are numbered here. Names joined by + are all predicted targets of the reagent. The record does not give: the amount of reagent."}
{"Gene": "Acsx4 (Acyl-CoA synthetase X4)", "reagent": 1, "firefly reporter light, replicate 1": 2.13e5, "firefly reporter light, replicate 2": 2.36e5, "Renilla control light, replicate 1": 2.64e6, "Renilla control light, replicate 2": 2.57e6, "call": "inactive"}
{"Gene": "Acsx4 (Acyl-CoA synthetase X4)", "reagent": 2, "firefly reporter light, replicate 1": 2.37e5, "firefly reporter light, replicate 2": 2.98e5, "Renilla control light, replicate 1": 5.54e5, "Renilla control light, replicate 2": 8.01e5, "call": "inactive"}
{"Gene": "klu (klumpfuss)", "reagent": 1, "firefly reporter light, replicate 1": 1.90e5, "firefly reporter light, replicate 2": 1.93e5, "Renilla control light, replicate 1": 2.16e6, "Renilla control light, replicate 2": 1.83e6, "call": "inactive"}
{"Gene": "klu (klumpfuss)", "reagent": 2, "firefly reporter light, replicate 1": 3.34e5, "firefly reporter light, replicate 2": 3.57e5, "Renilla control light, replicate 1": 5.05e5, "Renilla control light, replicate 2": 5.30e5, "call": "inactive"}
{"Gene": "CG43777 + CG43776 + CG43775", "reagent": 1, "firefly reporter light, replicate 1": 2.35e5, "firefly reporter light, replicate 2": 2.41e5, "Renilla control light, replicate 1": 1.79e6, "Renilla control light, replicate 2": 1.71e6, "call": "inactive"}
{"Gene": "Ada3 (transcriptional Adaptor 3)", "reagent": 1, "firefly reporter light, replicate 1": 6.18e5, "firefly reporter light, replicate 2": 5.96e5, "Renilla control light, replicate 1": 2.85e6, "Renilla control light, replicate 2": 3.24e6, "call": "inactive"}
{"Gene": "Ada3 (transcriptional Adaptor 3)", "reagent": 2, "firefly reporter light, replicate 1": 7.51e5, "firefly reporter light, replicate 2": 5.83e5, "Renilla control light, replicate 1": 1.86e6, "Renilla control light, replicate 2": 2.07e6, "call": "inactive"}
{"Gene": "CG40486", "reagent": 1, "firefly reporter light, replicate 1": 1.05e5, "firefly reporter light, replicate 2": 1.13e5, "Renilla control light, replicate 1": 6.63e5, "Renilla control light, replicate 2": 9.25e5, "call": "inactive"}

Continued, starting with the last 2 of the part before.
{"Gene": "Ada3 (transcriptional Adaptor 3)", "reagent": 2, "firefly reporter light, replicate 1": 7.51e5, "firefly reporter light, replicate 2": 5.83e5, "Renilla control light, replicate 1": 1.86e6, "Renilla control light, replicate 2": 2.07e6, "call": "inactive"}
{"Gene": "CG40486", "reagent": 1, "firefly reporter light, replicate 1": 1.05e5, "firefly reporter light, replicate 2": 1.13e5, "Renilla control light, replicate 1": 6.63e5, "Renilla control light, replicate 2": 9.25e5, "call": "inactive"}
{"Gene": "Vps2 (Vacuolar protein sorting 2)", "reagent": 1, "firefly reporter light, replicate 1": 30128, "firefly reporter light, replicate 2": 24896, "Renilla control light, replicate 1": 3.18e5, "Renilla control light, replicate 2": 2.60e5, "call": "inactive"}
{"Gene": "Vps2 (Vacuolar protein sorting 2)", "reagent": 2, "firefly reporter light, replicate 1": 2.03e5, "firefly reporter light, replicate 2": 2.65e5, "Renilla control light, replicate 1": 4.76e5, "Renilla control light, replicate 2": 6.33e5, "call": "inactive"}
{"Gene": "LamC (Lamin C)", "reagent": 1, "firefly reporter light, replicate 1": 9.26e5, "firefly reporter light, replicate 2": 8.42e5, "Renilla control light, replicate 1": 2.71e6, "Renilla control light, replicate 2": 2.32e6, "call": "inactive"}
{"Gene": "LamC (Lamin C)", "reagent": 2, "firefly reporter light, replicate 1": 2.91e5, "firefly reporter light, replicate 2": 2.82e5, "Renilla control light, replicate 1": 4.58e5, "Renilla control light, replicate 2": 2.51e5, "call": "inactive"}
{"Gene": "CG42324", "reagent": 1, "firefly reporter light, replicate 1": 1.02e5, "firefly reporter light, replicate 2": 1.12e5, "Renilla control light, replicate 1": 1.56e6, "Renilla control light, replicate 2": 1.80e6, "call": "inactive"}
{"Gene": "CG42324", "reagent": 2, "firefly reporter light, replicate 1": 1.78e5, "firefly reporter light, replicate 2": 1.71e5, "Renilla control light, replicate 1": 1.98e6, "Renilla control light, replicate 2": 1.81e6, "call": "inactive"}
{"Gene": "CG42324", "reagent": 3, "firefly reporter light, replicate 1": 2.67e5, "firefly reporter light, replicate 2": 2.54e5, "Renilla control light, replicate 1": 6.55e5, "Renilla control light, replicate 2": 6.30e5, "call": "inactive"}
{"Gene": "CG13991", "reagent": 1, "firefly reporter light, replicate 1": 2.08e5, "firefly reporter light, replicate 2": 1.40e5, "Renilla control light, replicate 1": 2.34e6, "Renilla control light, replicate 2": 1.61e6, "call": "inactive"}
{"Gene": "Cyp4d1 (Cytochrome P450 4d1)", "reagent": 1, "firefly reporter light, replicate 1": 7.73e5, "firefly reporter light, replicate 2": 6.14e5, "Renilla control light, replicate 1": 8.90e5, "Renilla control light, replicate 2": 7.75e5, "call": "inactive"}
{"Gene": "Cyp4d1 (Cytochrome P450 4d1)", "reagent": 2, "firefly reporter light, replicate 1": 5.29e5, "firefly reporter light, replicate 2": 4.38e5, "Renilla control light, replicate 1": 5.03e6, "Renilla control light, replicate 2": 3.36e6, "call": "inactive"}
{"Gene": "Cyp4d1 (Cytochrome P450 4d1)", "reagent": 3, "firefly reporter light, replicate 1": 4.60e5, "firefly reporter light, replicate 2": 3.87e5, "Renilla control light, replicate 1": 4.07e5, "Renilla control light, replicate 2": 3.89e5, "call": "inactive"}
{"Gene": "drl (derailed)", "reagent": 1, "firefly reporter light, replicate 1": 1.05e6, "firefly reporter light, replicate 2": 1.21e6, "Renilla control light, replicate 1": 8.61e5, "Renilla control light, replicate 2": 9.39e5, "call": "active"}
{"Gene": "drl (derailed)", "reagent": 2, "firefly reporter light, replicate 1": 3.76e5, "firefly reporter light, replicate 2": 4.75e5, "Renilla control light, replicate 1": 9.71e5, "Renilla control light, replicate 2": 1.31e6, "call": "active"}
{"Gene": "drl (derailed)", "reagent": 3, "call": "inactive"}
